{
  "source": "patent US20060035844A1",
  "about": "“Preventive or remedy for diseases caused by hyperglycemia” (priority 2002, published 2006)",
  "system": "male Zucker fa/fa rats",
  "assay": "Effects after mixed-carbohydrate loading with or without sucrose (plasma glucose AUC 0-3 h)",
  "type": "in vivo, rat",
  "conditions": "Zucker fatty fa/fa rats, oral; Example 1 0.5 mg/kg, Example 2 0.3 mg/kg, acarbose 5 mg/kg, miglitol 5 mg/kg, phlorizin 100 mg/kg; 1.6 g glucose/kg load",
  "excerpt": "Next, in order to investigate whether effects caused by fructose ingestion are present, the present inventors have performed the following test using Zucker fatty fa/fa rats, model animals of type-2 diabetes. […] In the fructose-containing diet group, mixed carbohydrate (starch: sucrose: lactose=6:3:1), which corresponds approximately to carbohydrates in regular diets, was loaded. (e.g., see the following Reference 35). On the other hand, in the fructose-free diet group, mixed carbohydrate substituted the corresponding amount of starch for the amount of glucose contained within sucrose, was loaded, because sucrose is a disaccharide and is digested to glucose and fructose in the gastrointestinal tract. Then, comparison study of each diet was performed.\nThe FIG. 1 is a graph showing hypoglycemic effects of each drug caused by fructose ingestion.\nEffects of SGLT1 Inhibitors, an SGLT Inhibitor and α-glucosidase Inhibitors After Mixed-Carbohydrate Containing Sucrose Loading\nImmediately after the compound administration, mixed-carbohydrate with sucrose (starch:sucrose:lactose=6:3:1) or without sucrose (starch:lactose=7.5:1) was loaded at a dose of 1.6 g glucose/kg. […] The plasma was collected to quantify the plasma glucose concentration. The area under the curve of plasma glucose concentration from 0 to 3 hours was calculated by the trapezoidal method. […]",
  "note": "For at least one compound, name, drawing or mass did not settle the structure.",
  "data": [
    {"smiles": "C[C@H]1O[C@H](O[C@H]2[C@H](O)[C@@H](O)[C@@H](O[C@H]3[C@H](O)[C@@H](O)C(O)O[C@@H]3CO)O[C@@H]2CO)[C@H](O)[C@@H](O)[C@@H]1N[C@H]1C=C(CO)[C@@H](O)[C@H](O)[C@H]1O", "note": "(stereo partly shown) [acarbose]", "values": [
      {"measurement": "Reduction of plasma glucose concentration after sucrose-containing diet compared with sucrose-free diet (in words)", "result": "did not reduce plasma glucose concentration"}
    ]}
  ]
}
